Reference: the supplement of paper PMC4894684
± gives the standard deviation of the averaged measurements. For some assays here: What follows is the remainder of the data, with few or none of the strong results. Only a part is listed here, and it is no random draw.

How the values were obtained:
[1] = system: HFF; test: uninfected host cell viability relative to vehicle control; higher = less host cell toxicity; conditions: 5 µM; 72 h; oxygen 21 %
[2] = system: Toxoplasma gondii RH (in HFF); test: parasite growth relative to the screen mean (all compounds = 100%); higher = less inhibition of parasite growth; conditions: 5 µM; 72 h; oxygen 21 %
Procedure, shortened: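 Parasite growth was reported relative to the screen mean. In that scale, the mean of all compounds equals 100%, and values are averaged over two screens. Compounds from 10 mM DMSO stocks were pin-transferred to 5 µM final onto confluent human foreskin fibroblasts in 96-well plates, infected within 2 h with RH β-Gal–GFP Toxoplasma (MOI 1:5) and grown 72 h at 21% O2, with parasite number read by a CPRG β-Gal assay against in-plate standard curves. Uninfected host-cell viability was checked with CellTiter-Blue.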
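Wherever uninfected host cell viability relative to vehicle control is given: confluent HFF monolayers, run in parallel with the Toxoplasma growth screen as a host toxicity counterscreen.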

O=C1NC(=O)c2c1c(-c1ccccc1)cc1[nH]c3ccc(O)cc3c21
uninfected host cell viability [1]: 72.9 ± 1%
parasite growth [2]: < 0%
